The list shows a part of the results. Residues, ends and D or L forms follow the SMILES beside them. *: point of attachment. Cbz = O=C(OCc1ccccc1)*
Experiments:
Test in all cases: log2 fold change, soluble protein after heating vs DMSO (PISA); higher = thermal stabilisation; K562 cells, 10 uM, 30 min; active = over 0.2 and 3.5 SD of the protein, either way, in both replicates (recomputed)
IRAK-1-4 Inhibitor I = compound: C1COCCN1CCN2C3=CC=CC=C3N=C2NC(=O)C4=CC(=CC=C4)[N+](=O)[O-] [IRAK-1-4 Inhibitor I]
Procedure, shortened: (§1)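 Aliquots of K562 cells (2×10^6 cells/mL) treated with 10 μM compound for 30 min were heated for 3 min over 48°C-58°C. After pooling and extraction in PBS with 0.5% NP-40 at 4°C, soluble protein from a 21,000xg, 90 min spin was quantified by TMTpro 16plex LC-MS/MS with channel sums equalised. Thermal stability is expressed against control samples, from duplicates, as a log2 fold change.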

Chains of the proteins cited; added tags and fusions are not shown. Lines headed by an entry give the natural chain unless they say otherwise; changes in a name come on top.
UniProt Q6IPU0: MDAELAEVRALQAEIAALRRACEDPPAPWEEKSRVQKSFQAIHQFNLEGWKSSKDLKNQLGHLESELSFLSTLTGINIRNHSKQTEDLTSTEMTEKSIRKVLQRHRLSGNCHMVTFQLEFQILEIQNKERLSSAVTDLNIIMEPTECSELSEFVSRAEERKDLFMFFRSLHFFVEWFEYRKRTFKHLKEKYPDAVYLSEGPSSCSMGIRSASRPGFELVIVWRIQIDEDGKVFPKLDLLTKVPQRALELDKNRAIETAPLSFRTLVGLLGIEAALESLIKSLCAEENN
UniProt Q00537: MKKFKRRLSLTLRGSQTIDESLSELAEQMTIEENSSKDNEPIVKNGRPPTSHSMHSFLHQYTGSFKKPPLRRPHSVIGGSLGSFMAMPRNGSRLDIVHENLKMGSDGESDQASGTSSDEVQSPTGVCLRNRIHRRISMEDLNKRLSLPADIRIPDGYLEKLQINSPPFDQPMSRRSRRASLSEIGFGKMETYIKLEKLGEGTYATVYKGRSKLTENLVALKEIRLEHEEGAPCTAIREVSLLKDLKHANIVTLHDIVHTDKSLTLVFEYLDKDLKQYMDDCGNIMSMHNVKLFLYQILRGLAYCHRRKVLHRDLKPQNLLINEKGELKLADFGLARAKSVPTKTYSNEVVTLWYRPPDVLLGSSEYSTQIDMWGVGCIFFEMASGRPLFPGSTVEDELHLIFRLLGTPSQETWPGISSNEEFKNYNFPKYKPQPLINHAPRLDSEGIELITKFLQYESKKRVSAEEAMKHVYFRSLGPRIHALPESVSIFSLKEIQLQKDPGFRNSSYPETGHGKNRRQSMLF
UniProt Q8N960: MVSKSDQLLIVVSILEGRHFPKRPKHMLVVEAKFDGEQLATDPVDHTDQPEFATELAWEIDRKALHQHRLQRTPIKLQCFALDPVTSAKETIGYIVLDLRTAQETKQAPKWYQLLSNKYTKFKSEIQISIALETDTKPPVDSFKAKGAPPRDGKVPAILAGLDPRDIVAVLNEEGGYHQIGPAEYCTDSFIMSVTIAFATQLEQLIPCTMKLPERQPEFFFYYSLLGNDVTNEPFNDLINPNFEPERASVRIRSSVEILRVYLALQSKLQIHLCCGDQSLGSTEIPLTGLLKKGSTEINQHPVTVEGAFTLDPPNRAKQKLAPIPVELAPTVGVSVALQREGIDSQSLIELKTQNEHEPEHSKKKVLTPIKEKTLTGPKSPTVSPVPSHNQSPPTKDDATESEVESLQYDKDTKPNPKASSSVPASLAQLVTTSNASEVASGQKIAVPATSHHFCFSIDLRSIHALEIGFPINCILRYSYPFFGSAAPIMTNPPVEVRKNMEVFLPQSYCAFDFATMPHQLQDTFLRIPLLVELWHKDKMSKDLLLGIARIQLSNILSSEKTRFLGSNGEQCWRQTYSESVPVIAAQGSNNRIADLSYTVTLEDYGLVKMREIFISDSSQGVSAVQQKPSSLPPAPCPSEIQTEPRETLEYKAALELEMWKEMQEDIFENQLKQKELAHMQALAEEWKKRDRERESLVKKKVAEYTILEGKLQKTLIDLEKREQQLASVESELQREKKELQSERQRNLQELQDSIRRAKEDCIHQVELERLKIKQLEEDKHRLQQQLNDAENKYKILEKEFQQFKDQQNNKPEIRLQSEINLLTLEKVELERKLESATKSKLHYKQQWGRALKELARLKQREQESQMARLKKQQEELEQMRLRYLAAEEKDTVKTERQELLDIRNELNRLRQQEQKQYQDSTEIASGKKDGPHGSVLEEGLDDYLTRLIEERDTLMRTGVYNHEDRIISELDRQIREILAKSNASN
UniProt Q6ZU80: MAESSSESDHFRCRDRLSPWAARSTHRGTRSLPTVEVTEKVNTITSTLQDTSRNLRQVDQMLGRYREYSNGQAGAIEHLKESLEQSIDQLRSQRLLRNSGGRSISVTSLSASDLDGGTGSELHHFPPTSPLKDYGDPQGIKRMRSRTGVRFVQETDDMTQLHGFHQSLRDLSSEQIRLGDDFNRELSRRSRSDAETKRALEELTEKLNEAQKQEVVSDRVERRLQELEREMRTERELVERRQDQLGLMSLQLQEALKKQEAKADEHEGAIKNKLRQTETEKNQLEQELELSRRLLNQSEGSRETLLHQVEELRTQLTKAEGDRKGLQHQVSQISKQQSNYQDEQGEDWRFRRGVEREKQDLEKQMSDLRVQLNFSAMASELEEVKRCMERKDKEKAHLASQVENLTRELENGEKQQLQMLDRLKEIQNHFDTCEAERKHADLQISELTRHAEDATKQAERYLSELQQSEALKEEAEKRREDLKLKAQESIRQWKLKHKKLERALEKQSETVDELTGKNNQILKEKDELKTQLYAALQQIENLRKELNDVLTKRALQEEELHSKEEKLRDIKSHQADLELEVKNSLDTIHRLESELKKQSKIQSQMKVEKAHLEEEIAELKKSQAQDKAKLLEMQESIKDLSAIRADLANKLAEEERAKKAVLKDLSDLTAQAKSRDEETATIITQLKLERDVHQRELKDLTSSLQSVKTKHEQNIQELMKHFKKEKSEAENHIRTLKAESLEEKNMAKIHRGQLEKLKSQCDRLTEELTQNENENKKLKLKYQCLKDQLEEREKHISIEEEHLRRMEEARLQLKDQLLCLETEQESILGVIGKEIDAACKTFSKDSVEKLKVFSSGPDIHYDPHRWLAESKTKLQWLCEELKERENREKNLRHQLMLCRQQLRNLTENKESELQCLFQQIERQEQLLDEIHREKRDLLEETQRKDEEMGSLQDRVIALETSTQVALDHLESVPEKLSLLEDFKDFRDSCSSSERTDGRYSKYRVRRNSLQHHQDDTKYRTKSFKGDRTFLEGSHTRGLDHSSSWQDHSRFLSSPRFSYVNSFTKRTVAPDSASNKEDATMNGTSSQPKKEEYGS
UniProt Q9Y5S2: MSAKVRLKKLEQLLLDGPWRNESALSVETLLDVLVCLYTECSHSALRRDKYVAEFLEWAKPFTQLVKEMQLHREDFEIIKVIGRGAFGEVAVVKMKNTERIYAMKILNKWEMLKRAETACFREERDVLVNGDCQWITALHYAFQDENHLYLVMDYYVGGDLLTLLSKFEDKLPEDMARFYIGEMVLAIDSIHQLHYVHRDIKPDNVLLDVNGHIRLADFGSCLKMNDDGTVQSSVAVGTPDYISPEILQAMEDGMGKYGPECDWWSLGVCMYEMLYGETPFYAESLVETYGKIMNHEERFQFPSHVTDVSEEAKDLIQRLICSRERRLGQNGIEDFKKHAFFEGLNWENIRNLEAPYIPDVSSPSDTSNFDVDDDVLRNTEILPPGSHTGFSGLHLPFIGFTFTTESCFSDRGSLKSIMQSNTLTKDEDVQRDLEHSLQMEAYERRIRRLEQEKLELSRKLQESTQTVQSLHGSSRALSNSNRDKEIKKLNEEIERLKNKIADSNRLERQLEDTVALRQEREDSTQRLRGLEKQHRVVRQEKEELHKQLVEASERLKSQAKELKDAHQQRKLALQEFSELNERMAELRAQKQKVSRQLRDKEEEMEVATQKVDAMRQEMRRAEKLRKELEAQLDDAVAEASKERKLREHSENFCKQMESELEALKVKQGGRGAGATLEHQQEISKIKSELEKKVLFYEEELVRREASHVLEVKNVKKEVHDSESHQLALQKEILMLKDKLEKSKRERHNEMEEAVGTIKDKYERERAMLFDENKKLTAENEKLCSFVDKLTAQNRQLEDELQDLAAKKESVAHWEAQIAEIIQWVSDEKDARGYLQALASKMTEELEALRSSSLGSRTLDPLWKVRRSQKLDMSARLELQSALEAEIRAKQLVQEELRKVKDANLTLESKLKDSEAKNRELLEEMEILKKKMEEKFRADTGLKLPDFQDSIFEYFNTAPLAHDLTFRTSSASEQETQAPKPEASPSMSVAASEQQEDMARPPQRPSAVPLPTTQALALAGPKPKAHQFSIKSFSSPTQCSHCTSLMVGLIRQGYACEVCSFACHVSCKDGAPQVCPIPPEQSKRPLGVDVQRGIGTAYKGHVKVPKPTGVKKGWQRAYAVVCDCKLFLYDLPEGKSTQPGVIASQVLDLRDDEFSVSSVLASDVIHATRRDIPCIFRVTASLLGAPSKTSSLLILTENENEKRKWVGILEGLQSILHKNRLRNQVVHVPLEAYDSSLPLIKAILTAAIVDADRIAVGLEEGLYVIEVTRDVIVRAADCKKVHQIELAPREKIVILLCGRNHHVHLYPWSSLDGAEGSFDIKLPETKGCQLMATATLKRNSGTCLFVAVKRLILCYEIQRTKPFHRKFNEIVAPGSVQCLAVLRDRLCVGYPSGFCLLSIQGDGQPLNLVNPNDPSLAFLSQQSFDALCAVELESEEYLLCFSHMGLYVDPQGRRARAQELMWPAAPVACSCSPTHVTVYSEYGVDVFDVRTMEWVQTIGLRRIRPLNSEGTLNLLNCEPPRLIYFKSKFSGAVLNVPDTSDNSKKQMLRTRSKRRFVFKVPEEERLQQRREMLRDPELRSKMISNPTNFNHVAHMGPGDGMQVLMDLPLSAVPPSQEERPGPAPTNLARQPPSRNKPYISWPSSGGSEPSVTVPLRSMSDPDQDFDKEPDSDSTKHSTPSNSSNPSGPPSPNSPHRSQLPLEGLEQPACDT
UniProt Q8TDI0: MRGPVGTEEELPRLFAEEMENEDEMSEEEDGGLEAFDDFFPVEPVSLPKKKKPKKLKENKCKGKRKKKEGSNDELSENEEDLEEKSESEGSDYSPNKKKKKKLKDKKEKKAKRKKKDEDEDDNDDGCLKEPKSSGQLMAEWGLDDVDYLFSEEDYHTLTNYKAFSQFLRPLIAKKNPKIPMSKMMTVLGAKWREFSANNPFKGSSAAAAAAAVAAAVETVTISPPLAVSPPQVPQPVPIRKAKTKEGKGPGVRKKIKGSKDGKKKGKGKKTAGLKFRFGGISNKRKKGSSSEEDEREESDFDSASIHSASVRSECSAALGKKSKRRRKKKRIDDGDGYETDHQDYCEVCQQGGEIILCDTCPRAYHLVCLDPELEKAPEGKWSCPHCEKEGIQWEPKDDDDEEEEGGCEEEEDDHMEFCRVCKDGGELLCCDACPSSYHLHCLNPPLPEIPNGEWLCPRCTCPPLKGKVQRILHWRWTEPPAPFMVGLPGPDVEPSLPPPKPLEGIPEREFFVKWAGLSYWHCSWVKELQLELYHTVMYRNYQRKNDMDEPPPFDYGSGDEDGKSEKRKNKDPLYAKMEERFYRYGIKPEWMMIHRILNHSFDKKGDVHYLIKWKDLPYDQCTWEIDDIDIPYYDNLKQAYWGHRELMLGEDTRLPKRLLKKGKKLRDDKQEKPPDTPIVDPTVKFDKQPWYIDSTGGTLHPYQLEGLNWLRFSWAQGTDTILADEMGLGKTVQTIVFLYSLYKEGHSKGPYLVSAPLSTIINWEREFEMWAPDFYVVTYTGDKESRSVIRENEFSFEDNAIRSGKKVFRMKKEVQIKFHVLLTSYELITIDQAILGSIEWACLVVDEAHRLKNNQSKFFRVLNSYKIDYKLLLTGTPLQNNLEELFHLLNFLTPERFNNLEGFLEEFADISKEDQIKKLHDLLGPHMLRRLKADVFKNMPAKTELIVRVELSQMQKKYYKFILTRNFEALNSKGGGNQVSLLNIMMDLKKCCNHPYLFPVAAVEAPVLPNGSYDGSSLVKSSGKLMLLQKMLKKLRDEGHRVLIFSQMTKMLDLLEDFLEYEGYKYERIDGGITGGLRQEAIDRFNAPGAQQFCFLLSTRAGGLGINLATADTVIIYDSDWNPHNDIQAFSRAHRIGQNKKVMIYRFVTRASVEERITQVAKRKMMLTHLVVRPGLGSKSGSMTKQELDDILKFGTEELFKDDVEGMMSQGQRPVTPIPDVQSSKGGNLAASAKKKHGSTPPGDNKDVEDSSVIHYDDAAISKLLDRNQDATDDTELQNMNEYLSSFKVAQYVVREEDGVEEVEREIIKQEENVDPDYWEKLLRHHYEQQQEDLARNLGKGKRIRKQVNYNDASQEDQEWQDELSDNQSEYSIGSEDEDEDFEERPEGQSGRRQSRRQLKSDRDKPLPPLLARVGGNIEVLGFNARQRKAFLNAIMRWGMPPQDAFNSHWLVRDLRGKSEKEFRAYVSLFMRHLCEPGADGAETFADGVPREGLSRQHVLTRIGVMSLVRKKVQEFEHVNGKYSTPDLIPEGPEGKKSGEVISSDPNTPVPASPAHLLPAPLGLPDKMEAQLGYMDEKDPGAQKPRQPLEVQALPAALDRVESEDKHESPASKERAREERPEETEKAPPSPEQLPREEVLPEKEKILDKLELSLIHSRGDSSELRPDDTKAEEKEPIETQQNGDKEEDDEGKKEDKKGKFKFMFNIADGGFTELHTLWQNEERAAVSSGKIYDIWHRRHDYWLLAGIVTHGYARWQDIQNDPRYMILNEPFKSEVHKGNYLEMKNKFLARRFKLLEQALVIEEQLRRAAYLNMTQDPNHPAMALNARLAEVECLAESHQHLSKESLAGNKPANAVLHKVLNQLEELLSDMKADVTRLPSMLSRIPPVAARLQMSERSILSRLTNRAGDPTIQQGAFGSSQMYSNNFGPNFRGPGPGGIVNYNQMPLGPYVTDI

ibrutinib = compound: C=CC(=O)N1CCC[C@@H](n2nc(-c3ccc(Oc4ccccc4)cc3)c3c(N)ncnc32)C1 [ibrutinib]
Procedure, shortened: as §1

[1] = compound: CC(=O)c1cnc2ccc(-c3cc(Cl)c(O)c(Cl)c3)nc2c1N[C@H]1CC[C@H](CN(C)C)CC1
Procedure, shortened: as §1

ralimetinib = compound: CC(C)(C)Cn1c(N)nc2ccc(-c3[nH]c(C(C)(C)C)nc3-c3ccc(F)cc3)nc21 [ralimetinib]
Procedure, shortened: as §1

[2] = compound: CC(C)C1=C2N=C(C=C(N2N=C1)NCC3=CC=CC=C3)NCCCCCCN
Procedure, shortened: as §1

[3] = compound: CC(C)C[C@@H](C=O)NC(=O)[C@H](CC(C)C)NC(=O)[C@H](CC(C)C)NC(=O)OCc1ccccc1
Procedure, shortened: as §1

pinometostat = compound: CC(C)N(C[C@H]1O[C@@H](n2cnc3c(N)ncnc32)[C@H](O)[C@@H]1O)[C@H]1C[C@@H](CCc2nc3cc(C(C)(C)C)ccc3[nH]2)C1 [pinometostat]
Procedure, shortened: as §1

[4] = compound: CC1=C(C(CC(=O)N1)C2=CC=C(C=C2)C(F)(F)F)C(=O)NC3=C(C=C4C(=C3)C=NN4)F
Procedure, shortened: as §1

[5] = compound: CC1=C(C2=C(C=C1)C(=O)C3=CC=CC=C3N2CCCN)C
Procedure, shortened: as §1

[6] = compound: CC(C)(O)CC(=O)NCCn1ccc2ncnc(Nc3ccc(Oc4cccc(C(F)(F)F)c4)c(Cl)c3)c21
Procedure, shortened: as §1

Measured: log2 fold change

CDKN2C (UniProt P42773)
inactive: IRAK-1-4 Inhibitor I -0.063 | ibrutinib -0.044 | [1] -0.141 | ralimetinib -0.152 | [2] 0.102 | [3] -0.048 | pinometostat -0.084 | [4] 0.043 | [5] 0.219

CDSN (UniProt Q15517)
inactive: IRAK-1-4 Inhibitor I 0.18 | ibrutinib 0.304 | [1] -0.261 | [6] 0.294 | pinometostat -0.032 | [4] -0.623 | [5] 1.26

CENPP (UniProt Q6IPU0)
inactive: IRAK-1-4 Inhibitor I -0.071 | ibrutinib 0.111 | ralimetinib 0.038 | [6] -0.077 | [2] -0.026 | [3] 0.052 | pinometostat -0.014 | [4] 0 | [5] -0.083

CEP250 (UniProt Q9BV73)
inactive: IRAK-1-4 Inhibitor I 0.011 | ibrutinib 0.068 | ralimetinib 0.007 | [6] 0 | [2] -0.155 | [3] 0.064 | pinometostat -0.032 | [4] -0.117 | [5] -0.102

CHCHD5 (UniProt Q9BSY4)
inactive: IRAK-1-4 Inhibitor I -0.17 | ibrutinib 0.048 | ralimetinib -0.098 | [2] 0.182 | [3] -0.084 | pinometostat 0.131 | [4] 0.036

CDK17 isoform 2 (UniProt Q00537)
inactive: IRAK-1-4 Inhibitor I 0.101 | ibrutinib 0.003 | [1] 0.258 | [6] -0.069 | [2] 0.078 | pinometostat 0.037

CHERP (UniProt Q8IWX8)
inactive: IRAK-1-4 Inhibitor I -0.091 | ibrutinib -0.069 | ralimetinib 0.013 | [6] -0.074 | [2] -0.097 | [3] 0.048 | pinometostat 0.021 | [5] -0.079
active: [1] -0.317

CHAC2 (UniProt Q8WUX2)
inactive: IRAK-1-4 Inhibitor I 0.038 | ibrutinib -0.058 | [1] -0.009 | ralimetinib -0.021 | [6] 0.085 | [2] 0.03 | [3] 0 | pinometostat 0.01 | [5] -0.036

CENPC (UniProt Q03188)
inactive: IRAK-1-4 Inhibitor I 0.103 | [1] -0.129 | [6] 0.1 | [2] 0.099 | pinometostat 0.315 | [4] 0.095

CETN3 (UniProt O15182)
inactive: IRAK-1-4 Inhibitor I 0.031 | ibrutinib -0.022 | [1] -0.006 | ralimetinib -0.075 | [6] 0.035 | [2] -0.038 | [3] 0.039 | pinometostat 0.016 | [5] -0.18

CHMP4B (UniProt Q9H444)
inactive: IRAK-1-4 Inhibitor I 0.068 | ibrutinib -0.024 | [1] 0.015 | ralimetinib 0.039 | [6] 0.015 | [2] 0.014 | [3] -0.003 | pinometostat -0.032 | [5] -0.011

CEP131 (UniProt Q9UPN4)
inactive: IRAK-1-4 Inhibitor I -0.101 | [1] -0.004 | [6] 0.078 | [2] 0.135 | pinometostat 0.128 | [5] 0.03

CEP120 (UniProt Q8N960)
inactive: IRAK-1-4 Inhibitor I 0.036 | ibrutinib -0.004 | [1] -0.003 | ralimetinib 0.151 | [6] -0.302 | [3] -0.071 | pinometostat 0.002 | [5] 0.104

CEP170 isoform 3 (UniProt Q5SW79)
inactive: IRAK-1-4 Inhibitor I 0.161 | ibrutinib 0.002 | [2] -0.031 | pinometostat 0.461

CENPJ (UniProt Q9HC77)
inactive: IRAK-1-4 Inhibitor I -0.058 | [1] -0.147 | ralimetinib 0.402 | [6] 0.004 | [2] -0.15 | [3] 0.339 | pinometostat 0.161 | [5] 0.058

CDCA2 (UniProt Q69YH5)
inactive: IRAK-1-4 Inhibitor I 0.023 | [1] 0.011 | ralimetinib 0.081 | [6] -0.138 | [2] -0.009 | [3] 0.188 | pinometostat -0.008 | [5] -0.003

CEBPZOS (UniProt A8MTT3)
inactive: IRAK-1-4 Inhibitor I -0.034 | ibrutinib -0.095 | [1] 0.003 | ralimetinib -0.076 | [2] 0.018 | [3] -0.059 | pinometostat -0.026 | [5] 0

CEP170B (UniProt Q9Y4F5)
inactive: IRAK-1-4 Inhibitor I -0.125 | ibrutinib -0.001 | [1] -0.251 | ralimetinib 0.001 | [6] -0.017 | [3] -0.009 | pinometostat 0.307

CHCHD10 (UniProt Q8WYQ3)
inactive: IRAK-1-4 Inhibitor I -0.245 | ibrutinib 0.017 | ralimetinib -0.13 | [6] -0.081 | [2] 0.047 | [3] -0.217 | pinometostat -0.094 | [4] 0.037

CEP128 (UniProt Q6ZU80)
inactive: IRAK-1-4 Inhibitor I -0.149 | ibrutinib -0.055 | [1] -0.022 | pinometostat 0.012 | [5] 0.1

CDC42BPB (UniProt Q9Y5S2)
inactive: IRAK-1-4 Inhibitor I -0.022 | ibrutinib -0.167 | ralimetinib 0.124 | [6] 0.023 | [2] -0.063 | [3] -0.009 | pinometostat 0.267 | [5] 0.023
active: [1] -0.637

CEP83 (UniProt Q9Y592)
inactive: IRAK-1-4 Inhibitor I 0.138 | ibrutinib 0.064 | ralimetinib 0.05 | [3] 0.222 | pinometostat 0.131

CDC42BPG (UniProt Q6DT37)
inactive: [2] 0.146

2 consecutive records out of the list so far, for reference:
CEP83 (UniProt Q9Y592)
inactive: IRAK-1-4 Inhibitor I 0.138 | ibrutinib 0.064 | ralimetinib 0.05 | [3] 0.222 | pinometostat 0.131

CDC42BPG (UniProt Q6DT37)
inactive: [2] 0.146

Later entries:

CHD5 (UniProt Q8TDI0)
inactive: ibrutinib -0.058 | [1] -0.249 | ralimetinib 0.11 | [6] 0.021 | [2] -0.367 | [3] 0.09 | [4] -0.016 | [5] -0.022

CFB (UniProt P00751)
inactive: ibrutinib 0.234 | ralimetinib 0.08 | [2] 0.178 | [3] 0.053 | [4] -0.099

CDC42EP4 (UniProt Q9H3Q1)
inactive: ibrutinib 0.016 | ralimetinib 0.021 | [6] 0.006 | [2] 0 | [3] 0.049 | [4] 0.069 | [5] -0.113

— the supplement of paper PMC10849652
